The values below come from PMC7193638.

These are yes or no findings as the source states them, for the method shown. For part of these data: Binding calls can cover weak binding; strength is not graded here.

Test in all cases: two-hybrid; UAS-GAL4 drop test with cloned ORFs: mated diploid cells, 10 µl of 10^6 cells/ml per drop, on SD-leu-trp and SD-leu-trp-his-ade plates, 3 days at 30 °C; empty pGBKT7-SfiI and pGADT7-SfiI as negative controls
The target of experiment [1] is Cry4 of Gallus gallus (GgCry4), full length (Gallus gallus).
Experiment [2] addresses European robin cryptochrome 1a (ErCry1a) (European robin (Erithacus rubecula)).
Experiment [3] has as its target European robin cryptochrome 4 (ErCry4), full length (European robin (Erithacus rubecula)).

B1: IscA1 of Drosophila melanogaster (DmIscA1), full length (protein, UniProt Q8T3X9 1-130)
chain: MATRVVATATVRAVKGRKLIPTRAALTLTPAAVLRIKTLLQDKPDMVGLKVGVRQRGCNGLSYTLDYASQKDKLDEEVVQDGVKVFIDKKAQLSLLGTEMDFVESKLSSEFVFNNPNIKGTCGCGESFSM
As to B1, the binding result in experiment [1] is given as “no binding”.

B2: period protein 2 of Gallus gallus (GgPer2), full length (protein, UniProt Q8QGQ8 1-1344)
chain: MDCIEVRGFYSSTEEQNPEQQADISENISSLFSLKEQQKMSEYSGLASNHSQMIAEDSEIQPKPEHSPEVLQEDIEMSSGSSGNDFSGNETNENYSSGHDSHGHESDENGKDSAMLMESSDCHKSSSSNAFSLMIANSEHNQSSSGCSSEQSTKAKTQKELLKTLQELKAHLPAEKRIKGKSSVLTTLKYALKSIKQVKANEEYYQLLMINESQPSGLNVSSYTVEEVETITSEYIMKNADMFAVAVSLITGKIVYISDQAAAILRCKRSYFKNAKFVELLAPQDVSVFYTSTTPYRLPSWNICSRAESSTQDCMEEKSFFCRISAGKERENEICYHPFRMTPYLIKVQDPEVAEDQLCCVLLAEKVHSGYEAPRIPPDKRIFTTTHTPTCLFQDVDERAVPLLGYLPQDLIGTPVLVHLHPNDRPLMLAIHKKILQYGGQPFDYSPIRFCTRNGDYITMDTSWSSFINPWSRKVSFIIGRHKVRTGPLNEDVFAAPNYTEDRILHPSVQEITEQIYRLLLQPVHNSGSSGYGSLGSNGSHEHLMSVASSSDSTGNNNDDTQKDKTISQDARKVKTKGQHIFTENKGKLEYKREPSAEKQNGPGGQVKDVIGKDTTATAAPKNVATEELAWKEQPVYSYQQISCLDSVIRYLESCNVPGTAKRKCEPSSSVNSSVHEQKASVNAIQPLGDSTVLKSSGKSSGPPVVGAHLTSLALPGKPESVVSLTSQCSYSSTIVHVGDKKPQPELEMIEDGPSGAEVLDTQLPAPPPSSTHVNQEKESFKKLGLTKEVLAVHTQKEEQSFLNKFKEIKRFNIFQSHCNYYLQDKPKGRPGERGGRGQRNGTSGMDQPWKKSGKNRKSKRIKPQESSDSTTSGTKFPHRFPLQGLNTTAWSPSDTSQASYSAMSFPTVMPAYPLPVFPAAAGTVPPAPETSVSGFNQLPDSGNTCSMQPSQFSAPLMTPVVALVLPNYVYPEMNNSLPQTLYHSQANFPTHPAFSSQTVFPAQPPFTTPSPFPQQAFFPMQPFHYNPPAEIEKVPVTETRNEPSRSCTPQSVGPQDQASPPLFQSRCSSPLNLLQLEENTKTVESGAPAGLHGALNEEGTIGKIMTTDAGSGKGSLPAESPMDAQNSDALSMSSVLLDILLQEDACSGTGSASSGSGVSAAAESLGSGSNGCDMSGSRTGSSETSHTSKYFGSIDSSENHHKTKMKAEIEESEHFIKYVLQDPIWLLMANTDDTVMMTYQLPSRDLETVLKEDKLKLKQMQKLQPKFTEDQKRELIEVHPWIQQGGLPKTVANSECIFCEDNIQSNFYTSYDEEIHEMDLNEMIEDSGENNLVPLSQVNEEQT
In the case of B2, the binding entry in experiment [2] is recorded as “binds”; in experiment [3], “no binding”.
